Measured data: PubChem BioAssay AID743121 (NCATS, 2013)

Aim: 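Knock-downs that sensitise breast cancer cells to camptothecin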 (primary screen)
System: MDA-MB-231 cells, a human breast cancer line
Reagent: single siRNA against human genes, 20 nM siRNA (0.8 pmol per well)
Time to read-out: 120 h (drug added 48 h after transfection, read 72 h later)
Conditions: camptothecin 20 nM (about EC30) for 72 h; vehicle 0.1% DMSO in parallel plates
Measured: 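Cell viability by ATP luminescence (CellTiter-Glo) as % of non-targeting siRNA wells, and the log2 ratio of viability without drug over viability with camptothecin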
Direction: log2 vehicle/camptothecin viability: higher = stronger sensitisation to camptothecin; viability with camptothecin and viability without drug: higher = more viable cells
Active means: 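Active genes have an RSA gene-level p-value below 0.001, computed from the ratios of their separate siRNAs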
Shown is one part, drawn at random, of about 26,000 reagents tested. Over the whole deposit, 167 (0.63%) got an active call. 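Calls are per gene from RSA p-values that are not deposited; an individual active-marked siRNA can sensitise only weakly.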 Entries without a mark were called inactive. Reagents against one gene are numbered here. Reagent sequences are not shown.

no.	gene symbol	reagent	log2 vehicle/camptothecin viability	viability with camptothecin (% of control)	viability without drug (% of control)
1	PPAT	1	-0.479	86.2	61.8
2	PPAT	2	-1.19	64	28
3	PPAT	3	-2	93.5	23.4
4	PPAT	4	-0.7	61.3	37.7
5	NR4A1	1	-0.308	75.9	61.3
6	NR4A1	2	0.203	22.7	26.1
7	NR4A1	3	-0.318	75.9	60.9
8	NR4A1	4	0.0794	56.1	59.3
9	CD82	1	-0.107	57.2	53.1
10	CD82	2	-0.297	42.6	34.7
11	CD82	3	0.941	10.6	20.3
12	IKZF1	1	-0.0959	114	106
13	IKZF1	2	-0.305	72.4	58.6
14	IKZF1	3	-0.126	98.7	90.5
15	IKZF1	4	-0.0842	105	99.5
16	STX10	1	-0.229	26.9	23
17	STX10	2	-0.251	47.6	40
18	STX10	3	0.0387	88.9	91.3
19	STX10	4	0.108	99.3	107
20	HECTD1	1	0.234	45.3	53.3
21	HECTD1	2	-0.478	78.9	56.7
22	HECTD1	3	-0.0786	71.5	67.7
23	HECTD1	4	-0.0363	108	105
24	HTRA4	1	-0.336	87.8	69.6
25	HTRA4	2	0.316	39	48.5
26	HTRA4	3	0.35	74.7	95.3
27	HTRA4	4	-0.0275	92	90.2
28	PATJ	1	-0.453	80.1	58.5
29	PATJ	2	-0.289	72.7	59.5
30	PATJ	3	1.18	13.6	30.9
31	PATJ	4	0.0568	84.7	88.1
32	IL17RE	1	-0.0536	87.5	84.3
33	IL17RE	2	-0.323	86	68.8
34	IL17RE	3	0.191	56.4	64.4
35	IL17RE	4	-0.0358	42.2	41.2
36	CD40	1	-0.267	67.1	55.8
37	CD40	2	-0.0416	72.7	70.6
38	CD40	3	0.1	111	119
39	SLC6A9	1	-0.361	90	70.1
40	SLC6A9	2	-0.171	41.3	36.7
41	SLC6A9	3	0.332	48.7	61.3
42	SLC6A9	4	0.23	24.8	29.1
43	GPR148	1	0.804	34.9	60.9
44	GPR148	2	-0.276	115	95.2
45	GPR148	3	0.12	92.8	101
46	GPR148	4	-0.16	94.5	84.5
